Assay results taken from PMC3912051.
These are yes or no findings as the source states them, for the method shown. In cells and extracts the contact can be indirect. For some assays here: Binding can be weak; no strength is given.

By UniProt entry, the sequences of proteins in these tests, tags left out. Where a name states a change or a piece, a line headed by the entry shows the natural chain unless it says otherwise.
UniProt P21506: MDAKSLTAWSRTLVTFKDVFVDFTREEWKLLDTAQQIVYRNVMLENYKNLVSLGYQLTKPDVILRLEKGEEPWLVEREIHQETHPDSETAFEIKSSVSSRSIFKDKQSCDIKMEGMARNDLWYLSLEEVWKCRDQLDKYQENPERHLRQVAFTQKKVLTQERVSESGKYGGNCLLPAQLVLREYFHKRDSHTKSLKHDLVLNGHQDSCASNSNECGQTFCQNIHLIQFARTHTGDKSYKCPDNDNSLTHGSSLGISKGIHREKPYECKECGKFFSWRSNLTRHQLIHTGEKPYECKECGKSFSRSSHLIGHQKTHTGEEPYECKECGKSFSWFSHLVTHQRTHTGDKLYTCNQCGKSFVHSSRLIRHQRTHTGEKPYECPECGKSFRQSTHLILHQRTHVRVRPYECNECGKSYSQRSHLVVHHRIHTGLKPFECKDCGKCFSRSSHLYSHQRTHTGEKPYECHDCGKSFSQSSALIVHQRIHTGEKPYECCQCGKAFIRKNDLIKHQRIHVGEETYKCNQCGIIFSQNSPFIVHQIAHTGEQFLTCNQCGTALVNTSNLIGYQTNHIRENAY
UniProt Q13263: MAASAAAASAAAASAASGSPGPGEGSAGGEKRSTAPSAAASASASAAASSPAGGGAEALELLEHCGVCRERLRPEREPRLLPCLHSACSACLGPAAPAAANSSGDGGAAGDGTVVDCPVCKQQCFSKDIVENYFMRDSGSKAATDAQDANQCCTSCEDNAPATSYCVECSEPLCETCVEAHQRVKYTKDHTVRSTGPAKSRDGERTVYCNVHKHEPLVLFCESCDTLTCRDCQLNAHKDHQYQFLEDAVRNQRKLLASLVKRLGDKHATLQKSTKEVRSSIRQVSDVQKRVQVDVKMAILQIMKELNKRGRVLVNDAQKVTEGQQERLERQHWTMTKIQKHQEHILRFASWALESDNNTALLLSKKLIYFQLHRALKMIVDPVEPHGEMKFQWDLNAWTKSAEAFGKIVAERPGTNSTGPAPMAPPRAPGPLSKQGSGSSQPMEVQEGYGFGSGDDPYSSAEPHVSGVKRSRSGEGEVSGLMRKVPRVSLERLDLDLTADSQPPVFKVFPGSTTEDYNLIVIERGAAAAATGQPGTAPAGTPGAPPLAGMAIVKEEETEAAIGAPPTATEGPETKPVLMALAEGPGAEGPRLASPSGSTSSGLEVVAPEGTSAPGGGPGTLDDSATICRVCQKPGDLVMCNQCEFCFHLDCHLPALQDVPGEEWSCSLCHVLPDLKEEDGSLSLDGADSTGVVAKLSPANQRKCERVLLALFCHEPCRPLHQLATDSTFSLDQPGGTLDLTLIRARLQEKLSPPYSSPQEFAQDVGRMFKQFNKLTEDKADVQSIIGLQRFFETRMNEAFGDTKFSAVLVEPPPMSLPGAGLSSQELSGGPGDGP

Experiments:
[1] = biological target: GST-ZNF10-KRAB-AB (KRAB-AB domain of human ZNF10/Kox1 fused to glutathione S-transferase) (human) (UniProt P21506); experiment: co-IP; GST-KRAB fusions expressed in HeLa cells; lysis in TST buffer (20 mM TRIS/HCl pH 7.5, 60 mM KCl, 15 mM NaCl, 10 mM MgCl2, 1 mM CaCl2, 250 mM sucrose, 0.5% Triton X-100); 1.25 mg total protein; IP with rabbit anti-GST and protein-G agarose; Western blot for endogenous TRIM28
[2] = biological target: GST-ZNF10-KRAB-A (KRAB-A subdomain of human ZNF10/Kox1 fused to glutathione S-transferase) (human) (UniProt P21506); experiment: as above

binding [1]: binds | binding [2]: no binding
Substance: TRIM28 (endogenous human TRIM28 protein) (from UniProt Q13263 1-835)
